In the supplement of paper PMC12823440, “Inhibitors supercharge kinase turnover through native proteolytic circuits” (Nature, 2025):
The other results are listed elsewhere or left out. Hit calls seldom repeat between salt and free forms of one compound.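 Kinases, fused to nanoluciferase, were expressed in K562 cells; luminescence was measured every 4 h from 2 to 18 h as percent of control (DMSO = 100%, positive control = 0%). A time point is decreased if signal falls significantly (2 sigma). Hits were called by the authors by a rule that is not shown; the count of time points alone does not decide it.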

Protein sequences, listed by entry. Tags and fused reporters are not part of them. Lines headed by an entry give the natural chain unless they say otherwise; changes in a name come on top.
UniProt P28482, whole entry: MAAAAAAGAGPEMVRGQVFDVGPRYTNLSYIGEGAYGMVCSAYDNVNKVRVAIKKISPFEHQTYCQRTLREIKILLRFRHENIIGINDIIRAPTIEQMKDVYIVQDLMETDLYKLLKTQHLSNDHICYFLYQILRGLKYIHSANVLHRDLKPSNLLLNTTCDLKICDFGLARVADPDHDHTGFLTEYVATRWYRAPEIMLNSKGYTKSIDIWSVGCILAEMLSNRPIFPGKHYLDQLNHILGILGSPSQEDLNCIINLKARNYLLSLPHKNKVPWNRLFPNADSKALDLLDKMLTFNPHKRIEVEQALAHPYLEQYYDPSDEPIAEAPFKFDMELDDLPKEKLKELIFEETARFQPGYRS
UniProt P49137, whole entry, looked up: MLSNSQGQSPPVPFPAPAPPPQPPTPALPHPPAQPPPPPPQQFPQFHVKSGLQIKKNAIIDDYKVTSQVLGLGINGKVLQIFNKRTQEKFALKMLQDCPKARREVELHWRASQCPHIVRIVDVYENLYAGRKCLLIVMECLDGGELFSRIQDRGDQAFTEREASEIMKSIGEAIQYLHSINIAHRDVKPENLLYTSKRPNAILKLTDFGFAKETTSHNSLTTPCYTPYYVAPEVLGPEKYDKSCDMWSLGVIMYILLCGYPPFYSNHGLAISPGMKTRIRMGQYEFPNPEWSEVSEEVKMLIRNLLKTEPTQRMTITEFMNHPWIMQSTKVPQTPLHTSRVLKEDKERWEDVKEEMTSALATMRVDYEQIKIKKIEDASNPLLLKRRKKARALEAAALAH
UniProt O96013: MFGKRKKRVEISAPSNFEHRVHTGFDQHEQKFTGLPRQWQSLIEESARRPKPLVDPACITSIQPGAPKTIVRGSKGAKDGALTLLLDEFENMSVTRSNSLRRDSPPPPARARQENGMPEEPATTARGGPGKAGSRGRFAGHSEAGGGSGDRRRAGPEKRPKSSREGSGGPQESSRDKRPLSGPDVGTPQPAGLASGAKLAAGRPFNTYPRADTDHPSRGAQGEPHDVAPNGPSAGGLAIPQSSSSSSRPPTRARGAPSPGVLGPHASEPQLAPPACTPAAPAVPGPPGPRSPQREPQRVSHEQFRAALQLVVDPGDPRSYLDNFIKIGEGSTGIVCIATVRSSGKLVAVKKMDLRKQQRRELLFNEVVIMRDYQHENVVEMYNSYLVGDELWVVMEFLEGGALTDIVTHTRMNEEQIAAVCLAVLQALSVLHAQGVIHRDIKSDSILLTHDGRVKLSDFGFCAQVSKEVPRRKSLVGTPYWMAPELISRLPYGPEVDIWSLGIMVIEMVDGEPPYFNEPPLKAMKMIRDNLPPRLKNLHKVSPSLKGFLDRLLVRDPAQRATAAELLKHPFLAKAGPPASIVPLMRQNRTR
UniProt Q96KB5: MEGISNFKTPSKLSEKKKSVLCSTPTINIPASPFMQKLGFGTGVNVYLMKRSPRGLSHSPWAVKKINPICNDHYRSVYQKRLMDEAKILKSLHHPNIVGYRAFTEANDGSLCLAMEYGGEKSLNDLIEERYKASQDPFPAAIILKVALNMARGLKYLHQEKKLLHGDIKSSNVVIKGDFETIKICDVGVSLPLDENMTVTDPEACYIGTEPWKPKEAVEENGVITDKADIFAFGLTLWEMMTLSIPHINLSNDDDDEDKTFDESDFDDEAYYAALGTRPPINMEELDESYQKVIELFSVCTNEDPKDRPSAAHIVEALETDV
UniProt Q15118, whole entry, looked up: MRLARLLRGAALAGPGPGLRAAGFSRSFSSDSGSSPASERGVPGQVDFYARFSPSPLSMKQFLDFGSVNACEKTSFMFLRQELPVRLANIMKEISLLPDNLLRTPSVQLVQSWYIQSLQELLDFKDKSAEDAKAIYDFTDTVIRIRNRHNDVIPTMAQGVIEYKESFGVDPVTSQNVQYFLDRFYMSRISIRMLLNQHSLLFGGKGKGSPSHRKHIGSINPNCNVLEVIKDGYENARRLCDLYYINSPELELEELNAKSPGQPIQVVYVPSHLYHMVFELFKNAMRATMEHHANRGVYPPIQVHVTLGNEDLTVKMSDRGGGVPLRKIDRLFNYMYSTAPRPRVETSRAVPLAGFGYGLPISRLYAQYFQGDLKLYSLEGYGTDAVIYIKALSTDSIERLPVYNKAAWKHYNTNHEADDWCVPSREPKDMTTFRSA
UniProt O15530: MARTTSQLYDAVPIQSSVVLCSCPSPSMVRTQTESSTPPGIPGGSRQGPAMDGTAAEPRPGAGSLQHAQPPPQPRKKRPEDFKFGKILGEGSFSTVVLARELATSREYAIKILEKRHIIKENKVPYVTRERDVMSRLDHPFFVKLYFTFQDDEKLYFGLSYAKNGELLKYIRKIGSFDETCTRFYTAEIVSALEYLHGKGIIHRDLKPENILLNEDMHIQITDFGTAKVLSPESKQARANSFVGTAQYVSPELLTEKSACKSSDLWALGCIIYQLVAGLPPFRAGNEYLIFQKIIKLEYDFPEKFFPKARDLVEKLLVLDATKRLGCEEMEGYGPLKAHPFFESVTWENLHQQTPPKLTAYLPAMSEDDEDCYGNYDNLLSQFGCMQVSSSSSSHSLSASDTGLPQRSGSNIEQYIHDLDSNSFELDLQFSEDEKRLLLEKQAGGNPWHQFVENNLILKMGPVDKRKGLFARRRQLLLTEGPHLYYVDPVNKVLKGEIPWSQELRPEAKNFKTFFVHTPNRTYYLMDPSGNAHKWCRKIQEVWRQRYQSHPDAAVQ
UniProt P42356, whole entry, looked up: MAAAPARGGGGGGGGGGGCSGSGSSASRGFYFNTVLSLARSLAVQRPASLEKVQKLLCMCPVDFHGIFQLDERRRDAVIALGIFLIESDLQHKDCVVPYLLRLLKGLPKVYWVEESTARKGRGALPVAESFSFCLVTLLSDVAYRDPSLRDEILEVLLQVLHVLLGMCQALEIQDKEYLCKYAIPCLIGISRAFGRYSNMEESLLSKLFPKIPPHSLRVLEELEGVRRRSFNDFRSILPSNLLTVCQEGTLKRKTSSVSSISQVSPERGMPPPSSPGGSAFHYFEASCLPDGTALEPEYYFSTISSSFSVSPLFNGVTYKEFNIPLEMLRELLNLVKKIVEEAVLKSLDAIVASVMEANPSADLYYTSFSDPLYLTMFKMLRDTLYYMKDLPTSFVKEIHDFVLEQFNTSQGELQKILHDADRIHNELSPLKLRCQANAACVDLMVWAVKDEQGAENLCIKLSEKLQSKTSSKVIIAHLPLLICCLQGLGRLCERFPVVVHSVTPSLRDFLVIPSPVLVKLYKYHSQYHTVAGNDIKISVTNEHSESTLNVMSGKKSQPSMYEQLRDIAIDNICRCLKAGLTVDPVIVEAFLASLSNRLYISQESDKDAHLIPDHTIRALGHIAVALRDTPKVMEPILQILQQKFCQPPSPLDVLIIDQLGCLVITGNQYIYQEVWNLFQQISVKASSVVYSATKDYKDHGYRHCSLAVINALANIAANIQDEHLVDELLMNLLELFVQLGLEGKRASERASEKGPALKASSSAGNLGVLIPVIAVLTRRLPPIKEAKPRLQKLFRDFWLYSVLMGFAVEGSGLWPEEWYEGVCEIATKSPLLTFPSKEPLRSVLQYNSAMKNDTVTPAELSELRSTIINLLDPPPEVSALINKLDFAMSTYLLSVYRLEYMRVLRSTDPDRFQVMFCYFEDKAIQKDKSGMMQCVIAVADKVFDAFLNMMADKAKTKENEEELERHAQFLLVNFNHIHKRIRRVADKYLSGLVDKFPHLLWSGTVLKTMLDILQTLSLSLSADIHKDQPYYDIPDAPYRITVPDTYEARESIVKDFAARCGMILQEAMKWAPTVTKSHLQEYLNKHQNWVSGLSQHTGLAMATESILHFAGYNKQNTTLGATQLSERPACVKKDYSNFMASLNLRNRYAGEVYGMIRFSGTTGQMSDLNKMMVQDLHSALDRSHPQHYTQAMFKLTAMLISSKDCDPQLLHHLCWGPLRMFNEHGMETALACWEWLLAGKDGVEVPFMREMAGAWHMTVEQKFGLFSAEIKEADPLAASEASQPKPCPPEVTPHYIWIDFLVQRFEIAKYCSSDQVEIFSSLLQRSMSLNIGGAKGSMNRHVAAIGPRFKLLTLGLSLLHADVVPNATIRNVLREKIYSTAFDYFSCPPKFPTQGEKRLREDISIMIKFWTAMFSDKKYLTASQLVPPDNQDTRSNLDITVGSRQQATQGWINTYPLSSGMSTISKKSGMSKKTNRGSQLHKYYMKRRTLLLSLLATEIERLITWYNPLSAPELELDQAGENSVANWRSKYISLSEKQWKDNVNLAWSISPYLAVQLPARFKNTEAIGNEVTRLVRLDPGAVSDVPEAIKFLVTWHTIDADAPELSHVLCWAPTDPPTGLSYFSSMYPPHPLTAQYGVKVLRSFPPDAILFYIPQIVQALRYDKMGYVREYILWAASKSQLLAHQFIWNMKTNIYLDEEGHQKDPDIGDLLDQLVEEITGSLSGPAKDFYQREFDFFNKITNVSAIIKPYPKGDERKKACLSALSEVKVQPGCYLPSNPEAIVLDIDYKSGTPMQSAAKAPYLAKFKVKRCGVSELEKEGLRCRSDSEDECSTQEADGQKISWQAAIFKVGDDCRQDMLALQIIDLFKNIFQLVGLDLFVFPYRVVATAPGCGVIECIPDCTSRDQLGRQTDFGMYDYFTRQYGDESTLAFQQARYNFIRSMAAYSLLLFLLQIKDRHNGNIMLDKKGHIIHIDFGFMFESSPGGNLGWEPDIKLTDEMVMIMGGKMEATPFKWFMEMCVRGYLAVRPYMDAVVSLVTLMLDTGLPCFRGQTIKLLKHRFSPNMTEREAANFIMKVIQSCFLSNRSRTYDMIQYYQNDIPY
UniProt Q05397, whole entry, looked up: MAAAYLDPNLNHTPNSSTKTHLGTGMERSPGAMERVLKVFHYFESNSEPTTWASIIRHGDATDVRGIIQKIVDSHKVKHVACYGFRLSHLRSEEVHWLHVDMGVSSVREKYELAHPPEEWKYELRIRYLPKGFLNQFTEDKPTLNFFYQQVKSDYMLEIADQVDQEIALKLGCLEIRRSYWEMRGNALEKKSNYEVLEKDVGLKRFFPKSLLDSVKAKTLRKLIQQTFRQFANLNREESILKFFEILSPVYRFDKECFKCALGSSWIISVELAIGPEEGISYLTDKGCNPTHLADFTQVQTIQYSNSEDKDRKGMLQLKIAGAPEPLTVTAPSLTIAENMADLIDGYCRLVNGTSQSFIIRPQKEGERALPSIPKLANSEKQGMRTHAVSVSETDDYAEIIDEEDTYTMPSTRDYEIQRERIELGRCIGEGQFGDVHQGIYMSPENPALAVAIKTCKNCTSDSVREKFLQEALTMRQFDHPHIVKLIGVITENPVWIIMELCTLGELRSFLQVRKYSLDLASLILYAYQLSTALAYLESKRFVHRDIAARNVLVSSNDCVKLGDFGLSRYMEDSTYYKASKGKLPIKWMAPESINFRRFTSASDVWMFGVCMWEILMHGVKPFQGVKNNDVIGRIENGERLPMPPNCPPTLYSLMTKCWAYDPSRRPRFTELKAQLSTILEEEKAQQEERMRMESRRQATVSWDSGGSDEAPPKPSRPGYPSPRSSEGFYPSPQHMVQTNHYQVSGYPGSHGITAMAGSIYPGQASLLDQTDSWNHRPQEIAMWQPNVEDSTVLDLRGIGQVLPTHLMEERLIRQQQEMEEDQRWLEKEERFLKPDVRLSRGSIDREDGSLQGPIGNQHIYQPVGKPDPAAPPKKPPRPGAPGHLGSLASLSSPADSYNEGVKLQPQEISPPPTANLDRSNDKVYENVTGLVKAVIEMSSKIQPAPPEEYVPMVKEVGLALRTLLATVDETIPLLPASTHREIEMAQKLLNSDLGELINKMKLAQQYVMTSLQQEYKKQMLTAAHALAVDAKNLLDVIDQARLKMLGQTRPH

Assays:
Assay in all cases: kinase-Nluc reporter destabilization hit call (1 = scored as downregulated) (binary); higher = compound decreases kinase abundance
Conditions in all cases: K562; 2-18 h
MAPK1 = MAPK1 (UniProt P28482)
MAPK4 = MAPK4 (UniProt P31152)
MAPKAPK2 = MAPKAPK2 (UniProt P49137)
MKNK1 = MKNK1 (UniProt Q9BUB5)
NTRK2 = NTRK2 (UniProt Q16620)
NTRK3 = NTRK3 (UniProt Q16288)
PAK4 = PAK4 (UniProt O96013)
PBK = PBK (UniProt Q96KB5)
PDGFRB = PDGFRB (UniProt P09619)
PDK1 = PDK1 (UniProt Q15118)
PDPK1 = PDPK1 (UniProt O15530)
PIK4CA = PIK4CA (UniProt P42356)
PIK4CB = PIK4CB (UniProt Q9UBF8)
PLK1 = PLK1 (UniProt P53350)
PRKAA1 = PRKAA1 (UniProt Q13131)
PRKCA = PRKCA (UniProt P17252)
PTK2 = PTK2 (UniProt Q05397)
PTK2B = PTK2B (UniProt Q14289)
RAF1 = RAF1 (UniProt P04049)
[1] = target: RAF1_S257L (clone: RAF1_mut) (UniProt P04049)

Measured: kinase-Nluc reporter destabilization hit call

CC(=O)Nc1nc(C)c(-c2cc3c(c(S(C)(=O)=O)c2)C(=O)N([C@@H](C)C2CC2)C3)s1 (2.5 µM)
inactive: MAPK1 = 0 | MAPK4 = 0 | MAPKAPK2 = 0 | MKNK1 = 0 | NTRK2 = 0 | NTRK3 = 0 | PAK4 = 0 | PBK 0 | PDGFRB 0 | PDK1 = 0 | PDPK1 = 0 | PIK4CA 0 | PIK4CB 0 | PLK1 = 0 | PRKAA1 = 0 | PRKCA 0 | PTK2 = 0 | PTK2B 0 | RAF1 = 0 | [1] 0

CCn1c(-c2nonc2N)nc2c(C#CCO)ncc(OCCCN)c21 [AKT Kinase Inhibitor] (10 µM)
inactive: MAPK1 = 0 | MAPK4 = 0 | MAPKAPK2 = 0 | MKNK1 = 0 | NTRK2 = 0 | NTRK3 = 0 | PAK4 = 0 | PBK 0 | PDGFRB 0 | PDK1 = 0 | PDPK1 = 0 | PIK4CA 0 | PIK4CB 0 | PLK1 = 0 | PRKAA1 = 0 | PRKCA 0 | PTK2 = 0 | PTK2B 0 | RAF1 = 0 | [1] 0

CN(C)C(=O)c1cc2cnc(Nc3ccc(NC(=O)C4(C(=O)Nc5ccc(F)cc5)CC4)cc3)nc2n1C1CCCC1 (2 µM)
inactive: MAPK1 = 0 | MAPK4 = 0 | MAPKAPK2 = 0 | MKNK1 = 0 | NTRK2 = 0 | NTRK3 = 0 | PAK4 = 0 | PBK 0 | PDGFRB 0 | PDK1 = 0 | PDPK1 = 0 | PIK4CA 0 | PIK4CB 0 | PLK1 = 0 | PRKAA1 = 0 | PRKCA 0 | PTK2 = 0 | PTK2B 0 | RAF1 = 0 | [1] 0

CC(C)(C)S(=O)(=O)c1cc2c(Nc3ccc4scnc4c3)ccnc2cc1OCCOCCOCCOCCOCC(=O)Nc1cccc2c1CN(C1CCC(=O)NC1=O)C2=O (stereo not given) [PROTAC RIPK degrader-6] (10 µM)
inactive: MAPK1 = 0 | MAPK4 = 0 | MAPKAPK2 = 0 | MKNK1 = 0 | NTRK2 = 0 | NTRK3 = 0 | PAK4 = 0 | PBK 0 | PDGFRB 0 | PDK1 = 0 | PDPK1 = 0 | PIK4CA 0 | PIK4CB 0 | PLK1 = 0 | PRKAA1 = 0 | PRKCA 0 | PTK2 = 0 | PTK2B 0 | RAF1 = 0 | [1] 0

C[C@@H](N)COc1ccc(-c2cnc3ccc(N[C@H](C)c4cccc(F)c4)nn23)cc1 [Taletrectinib] (2.5 µM)
inactive: MAPK1 = 0 | MAPK4 = 0 | MAPKAPK2 = 0 | MKNK1 = 0 | NTRK2 = 0 | NTRK3 = 0 | PAK4 = 0 | PBK 0 | PDGFRB 0 | PDK1 = 0 | PDPK1 = 0 | PIK4CA 0 | PIK4CB 0 | PLK1 = 0 | PRKAA1 = 0 | PRKCA 0 | PTK2 = 0 | PTK2B 0 | RAF1 = 0 | [1] 0

O=C(Nc1nc2cccc(-c3ccc(CN4CCS(=O)(=O)CC4)cc3)n2n1)C1CC1 [Filgotinib] (2.5 µM)
inactive: MAPK1 = 0 | MAPK4 = 0 | MAPKAPK2 = 0 | MKNK1 = 0 | NTRK2 = 0 | NTRK3 = 0 | PAK4 = 0 | PBK 0 | PDGFRB 0 | PDK1 = 0 | PDPK1 = 0 | PIK4CA 0 | PIK4CB 0 | PLK1 = 0 | PRKAA1 = 0 | PRKCA 0 | PTK2 = 0 | PTK2B 0 | RAF1 = 0 | [1] 0

COc1ccc(COc2cc3oc(=O)c4cc(C(C)O)ccc4c3cc2OC)cc1 (stereo not given) [Palomid 529] (2.5 µM)
inactive: MAPK1 = 0 | MAPK4 = 0 | MAPKAPK2 = 0 | MKNK1 = 0 | NTRK2 = 0 | NTRK3 = 0 | PAK4 = 0 | PBK 0 | PDGFRB 0 | PDK1 = 0 | PDPK1 = 0 | PIK4CA 0 | PIK4CB 0 | PLK1 = 0 | PRKAA1 = 0 | PRKCA 0 | PTK2 = 0 | PTK2B 0 | RAF1 = 0 | [1] 0

C[C@H](CC[C@@H](O)C(C)(C)O)[C@H]1CC[C@@]2(C)[C@@H]3CC=C4[C@@H](CC[C@H](O)C4(C)C)[C@]3(C)[C@H](O)C[C@]12C [Mogrol] (10 µM)
inactive: MAPK1 = 0 | MAPK4 = 0 | MAPKAPK2 = 0 | MKNK1 = 0 | NTRK2 = 0 | NTRK3 = 0 | PAK4 = 0 | PBK 0 | PDGFRB 0 | PDK1 = 0 | PDPK1 = 0 | PIK4CA 0 | PIK4CB 0 | PLK1 = 0 | PRKAA1 = 0 | PRKCA 0 | PTK2 = 0 | PTK2B 0 | RAF1 = 0 | [1] 0

O=c1cc(N2CCOCC2)oc2c1ccc1ccccc12 (2 µM)
inactive: MAPK1 = 0 | MAPK4 = 0 | MAPKAPK2 = 0 | MKNK1 = 0 | NTRK2 = 0 | NTRK3 = 0 | PAK4 = 0 | PBK 0 | PDGFRB 0 | PDK1 = 0 | PDPK1 = 0 | PIK4CA 0 | PIK4CB 0 | PLK1 = 0 | PRKAA1 = 0 | PRKCA 0 | PTK2 = 0 | PTK2B 0 | RAF1 = 0 | [1] 0

COc1ccc2c(c1)C[C@H](C(=O)Nc1ccc(-c3cn[nH]c3)cc1OCCN(C)C)CO2 [Chroman 1] (10 µM)
inactive: MAPK1 = 0 | MAPK4 = 0 | MAPKAPK2 = 0 | MKNK1 = 0 | NTRK2 = 0 | NTRK3 = 0 | PAK4 = 0 | PBK 0 | PDGFRB 0 | PDK1 = 0 | PDPK1 = 0 | PIK4CA 0 | PIK4CB 0 | PLK1 = 0 | PRKAA1 = 0 | PRKCA 0 | PTK2 = 0 | PTK2B 0 | RAF1 = 0 | [1] 0

CC(C)(C)S(=O)(=O)c1ccc2nccc(Nc3n[nH]c4ccc(F)cc34)c2c1 (10 µM)
inactive: MAPK1 = 0 | MAPK4 = 0 | MAPKAPK2 = 0 | MKNK1 = 0 | NTRK2 = 0 | NTRK3 = 0 | PAK4 = 0 | PBK 0 | PDGFRB 0 | PDK1 = 0 | PDPK1 = 0 | PIK4CA 0 | PIK4CB 0 | PLK1 = 0 | PRKAA1 = 0 | PRKCA 0 | PTK2 = 0 | PTK2B 0 | RAF1 = 0 | [1] 0

O=C1c2c(O)cc(O)cc2O[C@H](c2cc(O)c(O)c(O)c2)[C@H]1O [Dihydromyricetin] (10 µM)
inactive: MAPK1 = 0 | MAPK4 = 0 | MAPKAPK2 = 0 | MKNK1 = 0 | NTRK2 = 0 | NTRK3 = 0 | PAK4 = 0 | PBK 0 | PDGFRB 0 | PDK1 = 0 | PDPK1 = 0 | PIK4CA 0 | PIK4CB 0 | PLK1 = 0 | PRKAA1 = 0 | PRKCA 0 | PTK2 = 0 | PTK2B 0 | RAF1 = 0 | [1] 0

O=C(N/N=C/c1ccc([N+](=O)[O-])o1)c1ccc(O)cc1 [Nifuroxazide] (10 µM)
inactive: MAPK1 = 0 | MAPK4 = 0 | MAPKAPK2 = 0 | MKNK1 = 0 | NTRK2 = 0 | NTRK3 = 0 | PAK4 = 0 | PBK 0 | PDGFRB 0 | PDK1 = 0 | PDPK1 = 0 | PIK4CA 0 | PIK4CB 0 | PLK1 = 0 | PRKAA1 = 0 | PRKCA 0 | PTK2 = 0 | PTK2B 0 | RAF1 = 0 | [1] 0

O=c1sn(-c2cccc3ccccc23)c(=O)n1Cc1ccccc1 [Tideglusib] (10 µM)
inactive: MAPK1 = 0 | MAPK4 = 0 | MAPKAPK2 = 0 | MKNK1 = 0 | NTRK2 = 0 | NTRK3 = 0 | PAK4 = 0 | PBK 0 | PDGFRB 0 | PDK1 = 0 | PDPK1 = 0 | PIK4CA 0 | PIK4CB 0 | PLK1 = 0 | PRKAA1 = 0 | PRKCA 0 | PTK2 = 0 | PTK2B 0 | RAF1 = 0 | [1] 0

C[C@@H](Nc1cc(F)cc(F)c1)c1cc(C(=O)N(C)C)cc2c(=O)cc(N3CCOCC3)oc12 (10 µM)
active: [1] 1
inactive: MAPK1 = 0 | MAPK4 = 0 | MAPKAPK2 = 0 | MKNK1 = 0 | NTRK2 = 0 | NTRK3 = 0 | PAK4 = 0 | PBK 0 | PDGFRB 0 | PDK1 = 0 | PDPK1 = 0 | PIK4CA 0 | PIK4CB 0 | PLK1 = 0 | PRKAA1 = 0 | PRKCA 0 | PTK2 = 0 | PTK2B 0 | RAF1 = 0

COc1cc(-c2cc(-c3cccc(O)c3)cnc2N)cc(OC)c1OC (2.5 µM)
inactive: MAPK1 = 0 | MAPK4 = 0 | MAPKAPK2 = 0 | MKNK1 = 0 | NTRK2 = 0 | NTRK3 = 0 | PAK4 = 0 | PBK 0 | PDGFRB 0 | PDK1 = 0 | PDPK1 = 0 | PIK4CA 0 | PIK4CB 0 | PLK1 = 0 | PRKAA1 = 0 | PRKCA 0 | PTK2 = 0 | PTK2B 0 | RAF1 = 0 | [1] 0

COc1cc(/C=C/c2ccc(NC(=O)/C=C/c3cc(OC)c(OC)c(OC)c3)cc2)cc(OC)c1 (2.5 µM)
inactive: MAPK1 = 0 | MAPK4 = 0 | MAPKAPK2 = 0 | MKNK1 = 0 | NTRK2 = 0 | NTRK3 = 0 | PAK4 = 0 | PBK 0 | PDGFRB 0 | PDK1 = 0 | PDPK1 = 0 | PIK4CA 0 | PIK4CB 0 | PLK1 = 0 | PRKAA1 = 0 | PRKCA 0 | PTK2 = 0 | PTK2B 0 | RAF1 = 0 | [1] 0

CC(C)n1cnnc1-c1cccc(NC(=O)c2cc3ccc(F)cc3[nH]2)n1 (2.5 µM)
inactive: MAPK1 = 0 | MAPK4 = 0 | MAPKAPK2 = 0 | MKNK1 = 0 | NTRK2 = 0 | NTRK3 = 0 | PAK4 = 0 | PBK 0 | PDGFRB 0 | PDK1 = 0 | PDPK1 = 0 | PIK4CA 0 | PIK4CB 0 | PLK1 = 0 | PRKAA1 = 0 | PRKCA 0 | PTK2 = 0 | PTK2B 0 | RAF1 = 0
active: [1] 1

Ordered by molecular weight (ascending): four of the compounds above.
COc1cc(-c2cc(-c3cccc(O)c3)cnc2N)cc(OC)c1OC (2.5 µM)
inactive: MAPK1 = 0 | MAPK4 = 0 | MAPKAPK2 = 0 | MKNK1 = 0 | NTRK2 = 0 | NTRK3 = 0 | PAK4 = 0 | PBK 0 | PDGFRB 0 | PDK1 = 0 | PDPK1 = 0 | PIK4CA 0 | PIK4CB 0 | PLK1 = 0 | PRKAA1 = 0 | PRKCA 0 | PTK2 = 0 | PTK2B 0 | RAF1 = 0 | [1] 0

CC(C)n1cnnc1-c1cccc(NC(=O)c2cc3ccc(F)cc3[nH]2)n1 (2.5 µM)
inactive: MAPK1 = 0 | MAPK4 = 0 | MAPKAPK2 = 0 | MKNK1 = 0 | NTRK2 = 0 | NTRK3 = 0 | PAK4 = 0 | PBK 0 | PDGFRB 0 | PDK1 = 0 | PDPK1 = 0 | PIK4CA 0 | PIK4CB 0 | PLK1 = 0 | PRKAA1 = 0 | PRKCA 0 | PTK2 = 0 | PTK2B 0 | RAF1 = 0
active: [1] 1

C[C@@H](Nc1cc(F)cc(F)c1)c1cc(C(=O)N(C)C)cc2c(=O)cc(N3CCOCC3)oc12 (10 µM)
active: [1] 1
inactive: MAPK1 = 0 | MAPK4 = 0 | MAPKAPK2 = 0 | MKNK1 = 0 | NTRK2 = 0 | NTRK3 = 0 | PAK4 = 0 | PBK 0 | PDGFRB 0 | PDK1 = 0 | PDPK1 = 0 | PIK4CA 0 | PIK4CB 0 | PLK1 = 0 | PRKAA1 = 0 | PRKCA 0 | PTK2 = 0 | PTK2B 0 | RAF1 = 0

COc1cc(/C=C/c2ccc(NC(=O)/C=C/c3cc(OC)c(OC)c(OC)c3)cc2)cc(OC)c1 (2.5 µM)
inactive: MAPK1 = 0 | MAPK4 = 0 | MAPKAPK2 = 0 | MKNK1 = 0 | NTRK2 = 0 | NTRK3 = 0 | PAK4 = 0 | PBK 0 | PDGFRB 0 | PDK1 = 0 | PDPK1 = 0 | PIK4CA 0 | PIK4CB 0 | PLK1 = 0 | PRKAA1 = 0 | PRKCA 0 | PTK2 = 0 | PTK2B 0 | RAF1 = 0 | [1] 0
